The values that follow come from article PMC8097805.

Protein sequences, listed by entry. Tags and fused reporters are not part of them. Residues count along the entry.
UniProt P56704, residues 19-352: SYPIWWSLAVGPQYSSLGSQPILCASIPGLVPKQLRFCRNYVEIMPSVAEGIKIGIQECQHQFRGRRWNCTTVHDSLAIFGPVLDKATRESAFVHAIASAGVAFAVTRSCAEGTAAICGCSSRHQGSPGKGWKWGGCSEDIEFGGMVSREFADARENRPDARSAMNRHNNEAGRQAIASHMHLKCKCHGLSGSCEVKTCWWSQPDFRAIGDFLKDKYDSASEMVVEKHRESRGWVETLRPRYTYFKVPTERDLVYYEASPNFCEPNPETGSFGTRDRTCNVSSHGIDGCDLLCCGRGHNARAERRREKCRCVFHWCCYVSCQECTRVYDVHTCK

Results are given in words; binding and its absence hold for the method and conditions named. Binding seen in cells or lysates may run through a third protein. Some binding calls cover weakened binding; strength is not graded here.

The target of experiment [1] is T1, Glypican-1 (human (endogenous in RWPE-1, PC-3, DU-145)) (UniProt P35052).
T1 sequence: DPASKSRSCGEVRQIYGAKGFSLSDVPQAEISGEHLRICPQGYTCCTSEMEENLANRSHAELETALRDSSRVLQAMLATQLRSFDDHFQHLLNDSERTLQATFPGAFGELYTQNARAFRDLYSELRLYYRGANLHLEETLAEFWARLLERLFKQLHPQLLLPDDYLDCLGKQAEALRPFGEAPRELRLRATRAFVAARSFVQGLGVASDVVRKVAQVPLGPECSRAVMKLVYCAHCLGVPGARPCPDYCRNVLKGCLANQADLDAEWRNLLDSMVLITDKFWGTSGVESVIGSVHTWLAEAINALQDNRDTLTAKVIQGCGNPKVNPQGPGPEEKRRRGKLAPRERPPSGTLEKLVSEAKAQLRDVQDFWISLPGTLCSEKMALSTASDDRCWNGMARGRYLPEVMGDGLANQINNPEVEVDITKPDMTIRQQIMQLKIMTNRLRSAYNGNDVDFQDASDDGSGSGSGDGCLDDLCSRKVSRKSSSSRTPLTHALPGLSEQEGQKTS
Kind of experiment: co-IP; 500 ug total protein of cell extract (lysis buffer: 100 mM NaCl, 10% glycerol, 20 mM Tris-HCl pH 8.0, protease and phosphatase inhibitors) incubated with anti-glypican-1 or anti-glypican-5 overnight at 4 °C, protein A/G plus-agarose beads; Wnt-3a detected by immunoblot; RWPE-1, PC-3, DU-145 (GPC1) and LNCaP (GPC5) cells. (In general: In western blotting, separated proteins are transferred to a membrane and probed.)

The target in experiment [2] is T2, Glypican-5 (human (endogenous in LNCaP)) (UniProt P78333).
T2 sequence: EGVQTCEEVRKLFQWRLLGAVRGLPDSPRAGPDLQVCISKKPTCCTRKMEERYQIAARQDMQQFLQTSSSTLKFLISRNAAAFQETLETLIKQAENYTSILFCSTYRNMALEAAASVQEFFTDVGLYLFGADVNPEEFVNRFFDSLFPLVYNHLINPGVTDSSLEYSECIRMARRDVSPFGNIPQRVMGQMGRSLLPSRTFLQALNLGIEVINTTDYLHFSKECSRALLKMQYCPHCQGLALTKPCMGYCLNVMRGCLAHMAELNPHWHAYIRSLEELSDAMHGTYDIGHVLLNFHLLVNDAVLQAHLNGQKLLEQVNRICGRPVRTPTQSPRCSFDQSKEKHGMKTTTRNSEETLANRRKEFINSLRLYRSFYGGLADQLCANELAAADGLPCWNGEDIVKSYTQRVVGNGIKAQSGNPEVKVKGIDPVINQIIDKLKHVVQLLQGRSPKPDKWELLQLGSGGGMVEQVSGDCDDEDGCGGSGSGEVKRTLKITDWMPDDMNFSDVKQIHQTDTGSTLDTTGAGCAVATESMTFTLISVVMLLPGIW
The description is as above.

In the case of “Wnt-3a (from UniProt P56704 19-352) (ligand)”, the binding result in experiment [1] and in experiment [2] was “binds” in each case.
